# Literature values in patent US10029116B2, “Method for the treatment of acne” (DUSA PHARMACEUTICALS, INC., priority 2012, dated 2018).
# Where two headings read alike, the source gives them in different places. At least one compound was matched to its structure with a doubt left.
# How the values were obtained:
# [1] = test system: skin presenting acne lesions; settings: ALA applied 45 minutes before exposure to activating light
compound,measurement,setting,value
"NCC(=O)CCC(=O)O [ALA, aminolevulinic acid]",results of ALA-based PDT compared with light alone,[1],statistically indistinguishable from the use of light alone
same,results of ALA-based PDT compared with light alone,acne; delay of 15 minutes between ALA application and light,no difference
same,results of ALA-based PDT compared with light alone,acne; delay of 60 minutes between ALA application and light,light alone produced slightly better results
same,results of ALA-based PDT compared with light alone,acne; delay of 120 minutes between ALA application and light,no difference
